Results are given in words; binding and its absence hold for the method and conditions named. Binding seen in cells or lysates may run through a third protein. Sequences can lack the tags named with a protein.
Tests used:
Experiment in all cases: co-IP; FLAG-TPD52, FLAG-TPD53 or FLAG-TPD54 coexpressed in HeLa with GFP-FKBP constructs; lysis in 10 mM Tris pH 7.5, 150 mM NaCl, 0.5 mM EDTA, 1% Triton X-100; anti-FLAG M2 magnetic beads 2 h at 4°C; Western blot with anti-GFP
[1] = target: FLAG-TPD54 (human) (UniProt O43399)
[2] = target: T1, FLAG-TPD53 (human) (UniProt Q16890)
T1 sequence: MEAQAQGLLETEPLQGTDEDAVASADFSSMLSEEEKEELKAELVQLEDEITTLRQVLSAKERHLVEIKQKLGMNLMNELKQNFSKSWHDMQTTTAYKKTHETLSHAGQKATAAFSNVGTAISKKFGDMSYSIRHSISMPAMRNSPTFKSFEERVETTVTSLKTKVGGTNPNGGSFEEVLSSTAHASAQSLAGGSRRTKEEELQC

[3] = target: T2, FLAG-TPD52 (human) (UniProt P55327)
T2 sequence: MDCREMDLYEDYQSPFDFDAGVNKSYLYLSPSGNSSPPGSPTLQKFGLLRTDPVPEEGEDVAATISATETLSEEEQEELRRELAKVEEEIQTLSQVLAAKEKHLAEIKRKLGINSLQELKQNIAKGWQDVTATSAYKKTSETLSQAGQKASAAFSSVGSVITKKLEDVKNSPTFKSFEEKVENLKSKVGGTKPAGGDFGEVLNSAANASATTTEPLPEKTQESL

binding [1]: no binding | binding [2]: no binding | binding [3]: no binding
B1: GFP-FKBP-TPD54(L53P,L67P) (protein, UniProt O43399-1 1-206)
chain: MDSAGQDINLNSPNKGLLSDSMTDVPVDTGVAARTPAVEGLTEAEEEELRAEPTKVEEEIVTLRQVPAAKERHCGELKRRLGLSTLGELKQNLSRSWHDVQVSSAYVKTSEKLGEWNEKVTQSDLYKKTQETLSQAGQKTSAALSTVGSAISRKLGDMRNSATFKSFEDRVGTIKSKVVGDRENGSDNLPSSAGSGDKPLSDPAPF

— article PMC8298100
